# Primary screen of a compound library

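Whole-cell assay for inhibitors of Mycobacterium tuberculosis growth, labelled Cornell in the record; the read-out is not stated. The concentration is filed as 10 mM, unlikely as a test dose, so the dose is not known. The record gives no direction; compounds strong in two other growth screens of this library score well above the rest, so higher reads as stronger inhibition. About 53,000 compounds were tested under these conditions; 1.7% (about 900) showed 50% or more at least once.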

The filed quantity is “Percent Effect” (%).
The controls that fix the scale are not given in the record; negative values are as filed.
Compounds were drawn at random from those tested, without regard to their results.

structure,effect
C[C@@H]1CN(S(=O)(=O)c2ccc(F)cc2F)C[C@]1(C)O,5.079
CC(=O)N1CC2(CCN(c3nccc4ccccc34)CC2)CC1C(=O)O (centres unmarked),-25.3
O=C(Cc1ccc(F)cc1)NCCNS(=O)(=O)c1ccc(F)c(F)c1,17.95
O=C(c1ccc(Oc2cccnc2)cc1)N1CCN(CCO)CC1,21.65
Cc1nccn1CCC1CCCCN1C(=O)c1ccc2nonc2c1 (centres unmarked),6.651
CNC(=O)c1cccc(CN2CCN(c3ccncc3)CC2)c1,31.02
O=C(NC1CCC1)C1CCC2(CN(C(=O)c3ccno3)C2)O1 (centres unmarked),24.13
CCN1CCC(NC(=O)c2ccc(F)cc2I)CC1,-20.92
Cc1cnc(C(=O)NCC2Cc3ccccc3O2)cn1 (centres unmarked),13.38
Cc1cc(SCC(=O)O)nc2nn(CC(F)F)c(C)c12,-16.45
Cc1nc(C)n(CC2CCCN(Cc3ccc(F)cc3C#N)C2)n1 (centres unmarked),9.427
O=S(=O)(Cc1cccc(F)c1)Nc1cc(Cl)ccn1,-2.92
CN1CC(=O)N(c2cccnc2)CC12CCN(C(=O)c1cccn1C)C2.O=C(O)C(F)(F)F.O=C(O)C(F)(F)F (centres unmarked),12
CCN(CC)C1CCN(C(=O)c2cc3cc(C)cc(C)c3nc2C)CC1.Cl,22.37
CC(C)c1ccc(NC(=O)Cn2cc(I)cn2)cc1,64.63
O=C(NCc1ccccc1)N1CCC2(CC(=O)N(c3ccccc3)C2)C1 (centres unmarked),13.34
CN(CCc1ccccn1)[C@@H]1CCN(c2cccc(C#N)n2)C[C@H]1O,-64.33
[H][C@@]12COC[C@]1(CNS(C)(=O)=O)CN(C(=O)c1ccoc1)C2,7.662
Cc1cc(CNC(=O)c2cnoc2C)c(C)o1,10.41
COCCCN(CCOC)C(=O)Nc1ccccc1-n1cccn1,35.48
CN(C)C1CCN(C(=O)c2cc3c(s2)CCN3C(=O)C2CC2)CC1.O=C(O)C(F)(F)F,-43.57
CNC(=O)c1cc2c(nc1NC(C)C)CCN(C(=O)NC(C)C)CC2,4.584
CCOc1cccc(COC(=O)c2scnc2C)n1,5.087
O=C(NC[C@H]1OC[C@@H](NCc2ccccn2)[C@@H]1O)c1ccncc1,-1.579
Cc1nc(C)n(CC2CN(Cc3ccccc3OC(C)C)CCO2)n1 (centres unmarked),3.364
O=C(NCc1ccc(Br)c(F)c1)Nc1cn[nH]c1,-2.294
[H][C@]12CN(C(C)=O)CCN1C[C@H](c1ccccc1)[C@H]2C(=O)OCC,-12.44
COc1ccc(OC)c(C2CCN(C(=O)C3CCN(C(C)C)CC3)C2)c1 (centres unmarked),28.69
CNC(=O)CSc1nc2c(cnn2Cc2ccc(F)cc2)c(=O)[nH]1,-28.39
CC(C)N1CCC(c2nccnc2Nc2cnccn2)CC1,-20.38
COCC1CN(Cc2ccoc2)Cc2nn(CC3CC3)cc21.O=C(O)C(F)(F)F (centres unmarked),-34.23
CCCS(=O)(=O)N[C@H]1CN(c2ncccc2C(N)=O)C[C@@H]1C(C)C,12.12
CCc1ccc(S(=O)(=O)N2Cc3c(CN(C)C)nn(C)c3C2)cc1.O=C(O)C(F)(F)F,-5.361
CSCCC1CC(=O)Nc2cc(O)c(C)cc21 (centres unmarked),30.1
Cc1nc(NCCc2ccccc2)cc(C(=O)N2CCOCC2)n1,16.3
Cc1cc(C)n(CC2CN(Cc3nc(-c4ccco4)no3)CCO2)n1 (centres unmarked),23.63
CCOCC(=O)NCCCn1ccnc1-c1ccccc1,4.087
CS(=O)(=O)CCn1ccc(NC(=O)Cc2c[nH]c3ccccc23)n1,31.98
Cn1ccc(C(=O)N(CC(F)(F)F)c2cccc(Cl)c2)cc1=O,-47.72
COCCC(=O)N1CCN(C)c2ncccc2C1,10.2
COc1ncccc1CNC1CCc2c(ccc(=O)n2C)C1.O=C(O)C(F)(F)F.O=C(O)C(F)(F)F (centres unmarked),-14.45
C[C@H](O)c1cnn(-c2ccccc2)c1,11.47
Cc1ccc(-n2nnc(CC(=O)N3CCN(C4CC4)CC3)c2C)cc1,-11.84
Cc1ccccc1CN1CCCC1c1cccc(Nc2nccs2)n1 (centres unmarked),44.82
Cn1ccnc1CN1CCC2(CC1)COC2.O=C(O)C(F)(F)F,-12.11
Cc1cn2c(n1)CCC(NC(=O)c1ccc(OCC3CC3)nc1)C2 (centres unmarked),-0.7302
CNC(=O)N1CCC2(COCc3c(C)nc(NCc4ccco4)nc32)C1 (centres unmarked),14.33
CC1(COc2ccccc2)NCCc2[nH]cnc21 (centres unmarked),12.65
CCN(CC)C(CNC(=O)c1cccnc1-n1cncn1)c1ccsc1 (centres unmarked),-10.64
Cc1ccsc1C(CNC(=O)c1cc(=O)c2ccccc2[nH]1)N(C)C (centres unmarked),-6.156
[H][C@@]12CN(Cc3ccoc3)CCO[C@]1([H])CN(C(=O)CS(C)(=O)=O)C2,27.75
COC1CCN(c2ccc(F)cc2CN(C)S(C)(=O)=O)CC1,0.114
Cc1cnn(CC2CN(Cc3nnc(-c4ccccc4)o3)CCO2)c1 (centres unmarked),9.504
CNS(=O)(=O)c1cc(C(=O)NC2CCOc3ccccc32)cc(C)c1C (centres unmarked),-0.5765
CN(C)[C@@H]1CCN(C(=O)c2ccsc2)[C@H]1Cc1cccnc1.O=C(O)C(F)(F)F.O=C(O)C(F)(F)F,3.325
O=C(NCc1ccccc1)c1nn(C2CCS(=O)(=O)C2)c2c1CCCC2 (centres unmarked),-22.05
CSc1ccc(-n2nnc(C(=O)O)c2-c2ccccn2)cc1,-33.86
O=C1CCCCN1Cc1cccc(OC(F)F)c1,-13.05
CC(C)OCCN1CCC(Nc2ncc(Br)cn2)CC1,15.49
CCC(=O)N1CCC2(CC1)CN(C(C)=O)c1ccc(C)cc12,-9.488
c1cc(-c2cncnc2)cc(-c2ccn(CC3CCNC3)n2)c1 (centres unmarked),-50.26
CC(Cn1cccn1)NC(=O)C1=Cc2ccccc2OC1 (centres unmarked),3.186
Cc1nc(NCc2coc(-c3ccccc3)n2)cc(C2CCNCC2)n1,-26.79
O=C(CN1CCCC1Cn1cncn1)Nc1ccnn1C1CCCC1 (centres unmarked),39.34
[H][C@]12CC[C@]([H])(C1)N(C(=O)c1cccnc1-c1ccoc1)C2,-10.51
O=C(O)C(F)(F)F.[H][C@@]12CCC(=O)N(CCOC)[C@]1([H])CCN2Cc1ccc(C)s1,12.3
O=C(O)C(F)(F)F.O=C(O)C(F)(F)F.[H][C@]12C[C@H](C(=O)NCC3CC3)N(C)[C@@]1([H])CN(Cc1ccsc1)C2,-11.99
CCn1cnnc1CNS(=O)(=O)N1CCCC1c1ccco1 (centres unmarked),0.0868
[H][C@@]12CCN(C[C@@H]1CN(C)c1ccccc1)[C@@H](CNC(=O)c1ccco1)C2,13.24
O=C(c1cc2ccccc2s1)N1CCC(C(=O)O)(n2cccn2)CC1,-74.28

Data taken from ChEMBL document CHEMBL3988442, “University of Dundee, Small-Polar-MMV Screening Library” (2021).